# Source: the supplement of paper PMC3741180, “A Novel High Throughput Biochemical Assay to Evaluate the HuR Protein-RNA Complex Formation” (PLoS ONE, 2013)
# By UniProt entry, the sequences of proteins in these tests, tags left out.
# UniProt Q15717, whole entry: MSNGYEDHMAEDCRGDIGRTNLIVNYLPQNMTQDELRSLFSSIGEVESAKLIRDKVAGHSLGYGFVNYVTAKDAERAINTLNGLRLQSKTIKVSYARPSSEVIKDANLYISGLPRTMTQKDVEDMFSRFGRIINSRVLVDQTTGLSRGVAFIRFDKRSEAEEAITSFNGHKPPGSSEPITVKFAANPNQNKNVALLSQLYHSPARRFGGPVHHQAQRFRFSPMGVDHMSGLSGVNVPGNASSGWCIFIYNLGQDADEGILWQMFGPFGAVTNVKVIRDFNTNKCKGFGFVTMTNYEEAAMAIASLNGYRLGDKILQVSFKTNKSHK
# The other results are listed elsewhere or left out. This data set is noisy: repeats of one test often differ as much as different tests do.
# Biological target: HuR (ELAVL1) - TNFalpha ARE RNA complex (UniProt Q15717)
# Test: AlphaScreen HuR-RNA complex signal Z-score relative to positive (Bi-TNF, DMSO) controls (Z-score (SD units of positive control)); higher = more complex signal
# Settings: screen stage: primary screen; compound concentration: 25 nM
row,Structure (SMILES),AlphaScreen HuR-RNA complex signal Z-score
1,C#C[C@]1(O)CC[C@H]2[C@@H]3CCC4=CC(=O)CC[C@]4(C)[C@H]3CC[C@@]21C,1.18
2,COP(=S)(OC)SCn1nnc2ccccc2c1=O,-0.145
3,CC(C)[N+](C)(CCC(C(N)=O)(c1ccccc1)c1ccccc1)C(C)C,0.781
4,COC(=O)COc1ccc(Cl)cc1Cl,1.97
5,C[C@]12CC[C@H]3[C@@H](CC[C@]4(O)C[C@@H](O)CC[C@]34C=O)[C@@]1(O)CC[C@@H]2C1=CC(=O)OC1,2.08
6,CC(Oc1ccc(Cl)cc1Cl)C(=O)O (stereo not drawn),2.46
7,CC[C@H](C)[C@H]1O[C@]2(C=C[C@@H]1C)C[C@@H]1C[C@@H](C/C=C(\C)[C@@H](O[C@H]3C[C@H](OC)[C@@H](O[C@H]4C[C@H](OC)[C@@H](O)[C@H](C)O4)[C@H](C)O3)[C@@H](C)/C=C/C=C3\CO[C@@H]4[C@H](O)C(C)=C[C@@H](C(=O)O1)[C@]34O)O2.CO[C@H]1C[C@H](O[C@H]2[C@H](C)O[C@@H](O[C@@H]3/C(C)=C/C[C@@H]4C[C@@H](C[C@]5(C=C[C@H](C)[C@@H](C(C)C)O5)O4)OC(=O)[C@@H]4C=C(C)[C@@H](O)[C@H]5OC/C(=C\C=C\[C@@H]3C)[C@]54O)C[C@@H]2OC)O[C@@H](C)[C@@H]1O,0.426
8,COc1cc([C@@H]2c3cc4c(cc3[C@H](OC(C)=O)[C@H]3COC(=O)[C@H]23)OCO4)cc(OC)c1OC,0.313
9,Nc1ccncc1,0.867
10,O=C(O)CNCP(=O)(O)O,0.35
11,COC(=O)[C@@H]1C[C@H](OC(C)=O)C(=O)[C@H]2[C@@]1(C)CC[C@H]1C(=O)O[C@H](c3ccoc3)C[C@]21C,1.83
12,CC[C@@]1(O)C[C@H](O)c2c(cc3c(c2O)C(=O)c2c(O)ccc(O)c2C3=O)[C@H]1C(=O)OC,1.83
13,O=C(O)CCCc1ccc(N(CCCl)CCCl)cc1,-2.55
14,COc1nc(NC(C)C)nc(NC(C)C)n1,2.63
15,Oc1noc2c1CCNC2,2.02
16,O=c1ccc2c(O)c3ccoc3cc2o1,1.43
17,C/C=C(/C)C(=O)O[C@H]1CC[C@@]2(C)[C@@H]3CC[C@H]4[C@]5(O)C[C@H](O)[C@@]6(O)[C@@H](CN7C[C@@H](C)CC[C@H]7[C@@]6(C)O)[C@]5(O)C[C@@]42O[C@]13O,1.25
18,CCCC(C)C1(CC)C(=O)NC(=S)NC1=O (stereo not drawn),1.57
19,COc1cc([C@@H]2c3cc4c(cc3[C@H](O)[C@H]3COC(=O)[C@@H]23)OCO4)cc(OC)c1OC,0.866
20,ClC1=C(Cl)C2(Cl)C3C(Cl)C=CC3C1(Cl)C2(Cl)Cl (stereo not drawn),1.84
21,O=C1C=C2C=C[C@@H]3C[C@@]2(O1)[C@H]1CCCCN31,2
22,N#Cc1c(Cl)cccc1Cl,-1.11
23,CC(C)=CC1C(C(=O)OCc2cccc(Oc3ccccc3)c2)C1(C)C (stereo not drawn),1.2
24,C[CH2][Hg][S]c1ccccc1C(=O)[O-].[Na+],17.4
25,CC1(C)C(=O)C=C[C@]2(C)[C@H]3CC[C@@]4(C)[C@H](c5ccoc5)OC(=O)[C@H]5O[C@]54[C@]3(C)[C@H](O)C[C@@H]12,-2.23
26,CC[C@@]1(O)C(=O)OCc2c1cc1n(c2=O)Cc2cc3ccccc3nc2-1,0.413
27,O=C1C[C@@H]2OCC=C3CN4CC[C@]56c7ccccc7N1[C@H]5[C@H]2[C@H]3C[C@H]46,1.67

row,Structure (SMILES),AlphaScreen HuR-RNA complex signal Z-score
1,N#Cc1nn(-c2c(Cl)cc(C(F)(F)F)cc2Cl)c(N)c1[S+]([O-])C(F)(F)F (stereo not drawn),0.775
2,NCCc1cc(O)c(O)cc1O,5.35
3,C#CCOS(=O)OC1CCCCC1Oc1ccc(C(C)(C)C)cc1 (stereo not drawn),2.69
4,CC(C)=CCC[C@]1(C)C=Cc2c(O)c3c(c(CC=C(C)C)c2O1)O[C@]12C(=C[C@@H]4C[C@H]1C(C)(C)O[C@@]2(C/C=C(/C)C(=O)O)C4=O)C3=O,1.31
5,C=C(C)c1cc2cc(C(C)=O)c(O)cc2o1,1.52
6,Cc1cc(OC(=O)N2CCCCC2)c(C(C)C)cc1[N+](C)(C)C,1.62
7,CC(C)OC(=O)Nc1cccc(Cl)c1,0.79
8,c1ccc2nc(N3CCNCC3)ccc2c1,1.05
9,C[N+](C)(C)CCCCCCCCCC[N+](C)(C)C,2.04
10,C[N+]1(C)[C@@H]2CC[C@H]1C[C@@H](OC(=O)C(CO)c1ccccc1)C2 (stereo partly drawn),1.71
11,CN1C[C@H](C(=O)N[C@]2(C)O[C@@]3(O)[C@@H]4CCCN4C(=O)[C@H](Cc4ccccc4)N3C2=O)C[C@@H]2c3cccc4[nH]cc(c34)C[C@H]21,-3.56
12,COc1cccc(C2(O)CCCCC2CN(C)C)c1 (stereo not drawn),1.21
13,CC(CCc1ccccc1)NC(C)C(O)c1ccc(O)cc1 (stereo not drawn),4.71
14,COP(=S)(OC)Oc1ccc([N+](=O)[O-])cc1,1.18
15,N.N.[Cl][Pt][Cl],0.374
16,CCCN1C[C@H](CSC)C[C@@H]2c3cccc4[nH]cc(c34)C[C@H]21,0.221
17,CC(C)N1C(=O)c2ccccc2NS1(=O)=O,-1.5
18,c1ccc2c(c1)cc1ccc3cccc4ccc2c1c34,0.0985
19,N#C/C(=C\c1ccc(O)cc1)C(=O)O [alpha-CYANO-4-HYDROXYCINNAMIC ACID],2.42
20,CC(=O)Oc1ccc(/C=C/c2cc(OC(C)=O)cc(OC(C)=O)c2)cc1,1.94
21,CC1=C(O)C(=O)C=C2C1=CC=C1[C@@]2(C)CC[C@@]2(C)[C@@H]3C[C@](C)(C(=O)O)CC[C@]3(C)CC[C@]12C,1.99
22,Cc1ncc(CNC(=O)N(CCCl)N=O)c(N)n1,1.55
23,CCC12C=CCN3CC[C@@]4(c5ccc(OC)cc5N(C)[C@H]4[C@@](O)(C(=O)OC)[C@@H]1OC(C)=O)[C@@H]32 (stereo partly drawn),0.06
24,CN1CCCCC1c1ccc(-c2cccnc2)nc1 (stereo not drawn),0.763
25,CCCCCCCCCc1ccc(O)cc1,2.8
26,CNc1ccc(C(=O)CC(O)CCC(C)C2OC(=O)CC(O)CC(=O)CC(O)CC(O)CC(O)CC(O)CC3(O)CC(O)C(C(=O)OC)C(CC(O[C@@H]4O[C@H](C)[C@@H](O)[C@H](N)[C@@H]4O)/C=C/C=C/C=C/C=C/C=C/C=C/C=C/C2C)O3)cc1.COC(=O)C1C(O)CC2(O)CC(O)CC(O)CC(O)CC(O)CC(=O)CC(O)CC(=O)OC(C(C)CCC(O)CC(=O)c3ccc(N)cc3)C(C)/C=C/C=C/C=C/C=C/C=C/C=C/C=C/C(O[C@@H]3O[C@H](C)[C@@H](O)[C@H](N)[C@@H]3O)CC1O2 (stereo partly drawn),-1.67

# Some values from the results shown:
# CCCCCCCCCc1ccc(O)cc1 | AlphaScreen HuR-RNA complex signal Z-score: 2.8
# CC(CCc1ccccc1)NC(C)C(O)c1ccc(O)cc1 (stereo not drawn) | AlphaScreen HuR-RNA complex signal Z-score: 4.71
# CC(C)[N+](C)(CCC(C(N)=O)(c1ccccc1)c1ccccc1)C(C)C | AlphaScreen HuR-RNA complex signal Z-score: 0.781
